Test results taken from patent US20050158322A1.
No constants are given. Whether binding was seen depends on the method and setting.

The chains behind the UniProt entries cited, without tags or fusion partners. Residues count along the entry.
UniProt P02769, residues 25-607: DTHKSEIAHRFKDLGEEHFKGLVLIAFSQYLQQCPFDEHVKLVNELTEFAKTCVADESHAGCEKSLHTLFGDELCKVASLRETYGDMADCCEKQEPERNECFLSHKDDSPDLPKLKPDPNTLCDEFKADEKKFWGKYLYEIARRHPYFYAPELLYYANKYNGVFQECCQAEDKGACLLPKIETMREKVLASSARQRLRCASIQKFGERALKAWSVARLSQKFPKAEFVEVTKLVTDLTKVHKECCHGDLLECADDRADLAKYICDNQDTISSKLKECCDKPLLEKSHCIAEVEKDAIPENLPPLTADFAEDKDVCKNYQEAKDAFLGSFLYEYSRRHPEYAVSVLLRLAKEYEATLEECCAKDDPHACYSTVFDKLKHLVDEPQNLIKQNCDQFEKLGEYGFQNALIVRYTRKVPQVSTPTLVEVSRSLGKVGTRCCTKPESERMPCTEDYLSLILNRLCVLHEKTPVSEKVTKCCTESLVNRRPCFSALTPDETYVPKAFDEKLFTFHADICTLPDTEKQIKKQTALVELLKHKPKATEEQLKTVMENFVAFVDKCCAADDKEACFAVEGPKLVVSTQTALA
UniProt P01012, residues 2-386: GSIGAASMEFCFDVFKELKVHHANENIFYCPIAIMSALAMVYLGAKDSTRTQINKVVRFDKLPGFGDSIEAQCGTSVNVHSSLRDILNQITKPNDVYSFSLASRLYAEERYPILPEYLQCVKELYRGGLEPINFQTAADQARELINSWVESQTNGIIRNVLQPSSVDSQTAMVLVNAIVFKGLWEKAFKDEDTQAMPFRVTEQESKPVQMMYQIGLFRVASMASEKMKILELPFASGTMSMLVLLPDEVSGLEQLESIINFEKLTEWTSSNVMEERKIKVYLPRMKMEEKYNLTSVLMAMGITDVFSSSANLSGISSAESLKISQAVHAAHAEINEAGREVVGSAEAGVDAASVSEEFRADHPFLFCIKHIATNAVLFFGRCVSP

Assays:
[1] = molecular target: bovine seroalbumine (BSA, Sigma) (bovine) (UniProt P02769); experiment: condition: periplasm diluted 1:5, 1:10 and 1:20; antigen coated at 10 µg/mL; ELISA on coated polyvinyl plates, detection with Mab 9E10
ovalbumine = ovalbumine (UniProt P01012); experiment: as above

B1: monovalent scFv fragment (clone pJG1m-25), produced in E. coli (scFv, not shown: small tags and cut ends)
scFv: EVKLVESGGDLVKPGGSLKFSCAASGFPFNRYAMSWVRQTPEKRLEWVAFISSDGIAYYADSVKGRFTISRDNARNILYLQMSSLRSEDTAMYYCARVYYYGSSYFDYWGQGTTLTVSSEGKSSGSGSESKVDDIVMTQSPKFMSTSVGDRVSVTCKASQNAGTNVAWYQQKPGQSPKALIYSASSRNSGVPDRITGSGSGTDFTLTISNVQSEDLAEYFCQQYNSYPLVTFGAGTKLELK
B1 was tested, and the binding [1] was “no binding” and the binding (ovalbumine) was “no binding”.
